# Results reported in PubChem BioAssay AID1439 (NMMLSC, 2008).
# Sequences of proteins named here, by UniProt entry; tags and fusion partners are left off.
# UniProt P09471, whole entry, looked up: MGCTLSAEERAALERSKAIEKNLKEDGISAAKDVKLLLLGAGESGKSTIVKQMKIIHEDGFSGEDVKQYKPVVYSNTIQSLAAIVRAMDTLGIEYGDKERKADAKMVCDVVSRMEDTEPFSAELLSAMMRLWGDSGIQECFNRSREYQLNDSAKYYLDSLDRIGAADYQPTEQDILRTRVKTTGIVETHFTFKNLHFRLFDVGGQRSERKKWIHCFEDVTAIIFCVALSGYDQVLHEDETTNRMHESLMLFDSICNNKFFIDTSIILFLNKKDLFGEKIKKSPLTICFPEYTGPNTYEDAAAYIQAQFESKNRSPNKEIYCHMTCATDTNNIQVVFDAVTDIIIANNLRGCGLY
# Hit rate of the full screen: of about 220,000 compounds, about 770 (0.35%) were called active. Inconclusive results, whose numbers are uncertain, are shown with a selection of clear calls. Rule as the data show it: active = binding response below about 49% or above about 150%; inconclusive = no clear call, values can overlap the other calls; inactive = in between.
# Molecular target: Guanine nucleotide-binding protein G(o) subunit alpha (Homo sapiens) (UniProt P09471)
# Assay: RGS7-Galphao binding modulators, primary screen, biochemical, multiplexed bead flow cytometry (AID 1439);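 also: fluorescent Galphao held in activated GDP-AlF4 state binding bead-coupled RGS7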
# Conditions: at 10 µM, actives lie on both sides
row,Compound,binding response (% of control)
1,Brc1ccc(-c2csc(Nc3nc(-c4ccc(Br)cc4)cs3)n2)cc1,inconclusive: 115%
2,NC(=O)CSc1nnc(-c2ccncc2)n1-c1ccc(Cl)cc1,inactive: 93.7%
3,O=C(NCc1ccccc1)c1cc[n+](CC(=O)c2cccs2)cc1,inconclusive: 84.3%
4,CSc1ccc(NC(=O)N2CC=C(n3c(=O)[nH]c4ccccc43)CC2)cc1,inactive: 101%
5,COC(=O)c1ccc(C23CC4(C2)[C@H](CN(Cc2cccnc2)[C@@H]4c2ccccc2)C3c2ccc(C(F)(F)F)cc2)cc1 (stereo partly specified),inconclusive: 95.1%
6,C=CCn1cnc2c(sc3nc(C)cc(C)c32)c1=O,inconclusive: 98.6%
7,C=CCn1ccc(=NC=C(C#N)C#N)c2ccccc21,inconclusive: -126%
8,Nc1nc(-c2ccccc2)c(-c2ccc([N+](=O)[O-])cc2)s1,inconclusive: 118%
9,CCN(CC)CCn1cnc2c1c(=O)n(CCOC(=O)c1cc(OC)c(OC)c(OC)c1)c(=O)n2C,inconclusive: 13%
10,COc1ccc(/C=N/n2c(-c3n[nH]c4c3CCC4)n[nH]c2=S)cc1,inconclusive: 115%
11,CC(C)CC(NC(=O)OC(C)(C)C)C(=O)O (stereo unspecified),inconclusive: 96.2%
12,CC1C(=O)CCC1(C(=O)O)c1ccccc1 (stereo unspecified),inactive: 110%
13,CCCC[n+]1ccn(-c2nc3ccccc3nc2[N-]S(=O)(=O)c2cccs2)c1,inconclusive: 145%
14,O=c1[nH][nH]c(=S)n1C1CCCCC1,inconclusive: 133%
15,Cc1ccc2c(c1)COc1c3ccc(C(=O)N4CCOCC4)cc3nn1-2,inconclusive: 97.3%
16,Cc1csc(SC(C)c2nc3scc(-c4ccccc4)c3c(=O)[nH]2)n1 (stereo unspecified),inconclusive: 109%
17,O=C(NCc1ccccn1)C1CC(c2ccccc2O)=NO1 (stereo unspecified),inactive: 83.5%
18,N#CCCn1cc(/C=C2\NC(=S)N(c3ccccc3)C2=O)c(-c2ccc(F)cc2)n1,inconclusive: 95.4%
19,Cc1c(F)cccc1NC(=O)CCCCCC1NC(=O)NC1C (stereo unspecified),inactive: 96.9%
20,Cc1nnsc1-c1nnc(SCC(=O)c2ccc(C#N)cc2)n1C1CC1,inconclusive: 17.8%
21,CC(C)(C)c1cc(C(=O)NNC(=O)c2ccc(C(F)(F)F)cc2)no1,inconclusive: 95.6%
22,S=c1[nH]nc(-c2ccc(Cl)cc2Cl)n1-c1ccc2c(c1)OCCO2,inconclusive: 108%
23,COc1ccc(-c2nc(N)nc(C(F)(F)F)c2-c2csc(C)n2)c(O)c1,inconclusive: -109%

row,Compound,binding response (% of control)
1,CN(C)c1ccc(P(=O)(OC2CCCCC2)C(Nc2ccccc2)c2cccnc2)cc1 (stereo unspecified),inconclusive: 97%
2,Cc1cc(N2CCOCC2)nc(NCc2ccccc2)n1,inactive: 120%
3,CCOC(=O)Cn1nc(-c2ccc(F)cc2)oc1=O,inactive: 99.1%
4,COC(=O)C(CC(C)C)N1CCC(=O)c2ccccc2S1(=O)=O (stereo unspecified),inconclusive: 113%
5,CSc1nnc(SCC#N)s1,inconclusive: 126%
6,O=C(NCc1ccccc1)c1cnsn1,active: 9.6%
7,Clc1nc2ccccc2nc1-c1ccccc1,inconclusive: 101%
8,CCOC(=O)COc1nc(-c2ccco2)cc(-c2ccco2)c1C#N,inconclusive: 108%
9,CC(C)(C)OC(=O)CNC(=O)c1nc[nH]c1C(=O)NCC(=O)OC(C)(C)C,inconclusive: 99.7%
10,COc1ccccc1CNC(=O)C1CCC(CNc2c(N3CCCCC3)c(=O)c2=O)CC1 (stereo unspecified),inconclusive: 95.5%
11,N#Cc1ccc(/C=N/NC(=O)c2cccc(S(=O)(=O)N3CCOCC3)c2)cc1,inconclusive: 98.4%
12,Clc1ccc(Nc2nc3cccnc3s2)cc1,inconclusive: 92.9%
13,CC12CCC(C(=O)N3CCOCC3)([C@H](Br)C1=O)C2(C)C (stereo partly specified),inconclusive: 100%
14,O=[N+]([O-])c1cccc(-c2n[nH]c(=S)n2-c2ccccc2)c1,inconclusive: 89.3%
15,O=C(c1c[nH]c2ccccc12)N1CCN(c2ccccc2)CC1,inconclusive: 82.2%
16,O=c1[nH]c2ccc(NC(=S)Nc3ccc(F)cc3)cc2[nH]1,inconclusive: 100%
17,CC(c1ccco1)N(C(=O)c1ccc(C(F)(F)F)cc1)c1ccccn1 (stereo unspecified),inconclusive: 134%
18,CN(Cc1ccccc1)C1=CC(=[N+]2CCCCC2)CC(C)(C)C1,inconclusive: 125%
19,CC1CCCC(C)N1C(=O)c1cccc2c1-c1ccccc1/C2=N/O (stereo unspecified),active: 166% [activator]
20,CC(C)CC[n+]1ccn(-c2nc3ccccc3nc2[N-]S(=O)(=O)c2ccc(Cl)cc2)c1,inconclusive: 117%
21,CCCCOc1ccc(/C=C/C2=CC(C)(C)NC(=S)N2)cc1OCC,inconclusive: 85.9%
22,CCCCNC(=O)C(=O)N/N=C/c1ccc(OCC(=O)Nc2cccc(OC)c2)c(OC)c1,inactive: 99.9%
23,S=C1NC[C@H](Cc2ccccc2)N1CCc1cccc2ccccc12,inconclusive: 83.7%

# Among those listed so far, these have a thiophene ring, fused or not.
row,Compound,binding response (% of control)
3,O=C(NCc1ccccc1)c1cc[n+](CC(=O)c2cccs2)cc1,inconclusive: 84.3%
6,C=CCn1cnc2c(sc3nc(C)cc(C)c32)c1=O,inconclusive: 98.6%
13,CCCC[n+]1ccn(-c2nc3ccccc3nc2[N-]S(=O)(=O)c2cccs2)c1,inconclusive: 145%
16,Cc1csc(SC(C)c2nc3scc(-c4ccccc4)c3c(=O)[nH]2)n1 (stereo unspecified),inconclusive: 109%

# Reprinted at random: three records from the list
row,Compound,binding response (% of control)
13,CC12CCC(C(=O)N3CCOCC3)([C@H](Br)C1=O)C2(C)C (stereo partly specified),inconclusive: 100%
19,CC1CCCC(C)N1C(=O)c1cccc2c1-c1ccccc1/C2=N/O (stereo unspecified),active: 166% [activator]
6,O=C(NCc1ccccc1)c1cnsn1,active: 9.6%

# The list continues.

row,Compound,binding response (% of control)
1,O=C1c2ccc(Br)cc2C(=O)N1c1ccc(Cc2ccncc2)cc1,inactive: 101%
2,CC(C)CNC(=O)NC(=O)COC(=O)c1ccccc1Sc1ccc(C(F)(F)F)cc1[N+](=O)[O-],inactive: 105%
3,O=C(O)c1cccc(Cn2c(Cl)c(/C=N/NC(=O)c3ccc(O)cc3)sc2=O)c1,inconclusive: 100%
4,Nn1c(SCC(=O)Nc2cc(S(=O)(=O)N3CCOCC3)ccc2Cl)nnc1-c1cccnc1,inconclusive: 110%
5,Cc1ccc(S(=O)(=O)C(C#N)c2nc3ccccc3nc2OCCO)cc1 (stereo unspecified),inconclusive: 109%
6,CC(C(=O)Nc1cccnc1)c1ccc([N+](=O)[O-])cc1 (stereo unspecified),inconclusive: 113%
7,COc1cc2c(cc1NC(=O)CSc1nnc(Cc3cccs3)n1C)oc1ccccc12,active: 248% [activator]
8,COc1ccc(/C(C)=N/Nc2nc3ccccc3n3cnnc23)cc1OC,inconclusive: 112%
9,O=C(/C=C/c1cccs1)N1CCC2(CC1)Oc1ccc(Cl)cc1C(=O)C21CC(c2ccccc2)=NO1 (stereo unspecified),inconclusive: 80%
10,COc1cc(OC)cc(C(=O)NCCSc2c[nH]c3ccccc23)c1,inconclusive: 81%
11,CC1CCCN(C(=S)Nc2ccc(S(=O)(=O)N3CCCCC3)cc2)C1 (stereo unspecified),inconclusive: 90.8%
12,O=C(N/C=C\n1cnc2cc(C(F)(F)F)ccc21)c1ccc([N+](=O)[O-])cc1,inconclusive: 50.2%
13,CN(C(=O)CSc1cc(C(=O)c2nccn2C)c2ccccc2n1)c1ccccc1,inconclusive: 103%
14,COc1ccc(F)cc1CN1CCN(c2ncnc3scc(-c4ccccc4)c23)CC1,inconclusive: 44.8%
15,Cc1ccccc1C(=O)NC(C(N)=O)P(=O)(OC(C)C)OC(C)C (stereo unspecified),inconclusive: 106%
16,O=C(O)Cc1sc(Nc2ccc(F)cc2)nc1-c1cccs1,inactive: 99.5%
17,CCOC(=O)c1c(NC(=O)N/N=C/c2ccc(O)c(OC)c2)sc(C(C)=O)c1C,inconclusive: 140%
18,CNc1nc(C23CC4CC(CC(C4)C2)C3)cs1,inactive: 101%
19,Cc1ccccc1N1CCN(S(=O)(=O)c2ccccc2)CC1,inactive: 104%
20,CC(C)(C)N/C=C(\C#N)S(=O)(=O)c1ccc(Br)cc1,inconclusive: -192%
21,O=S(=O)(Nc1nc2ccccc2s1)c1cnc(Cl)c(Br)c1,inconclusive: 12.2%
22,CCc1ccccc1NC(=O)N1CCc2ccccc21,inconclusive: 110%
23,C=CCNC(=O)CN1CCC(NC(=O)c2ccco2)CC1,inconclusive: 101%

row,Compound,binding response (% of control)
1,CC(=O)CC(=O)Nc1nc(C)cc(C)n1,inconclusive: 129%
2,O=C(c1ccc(F)cc1)N1CCN(c2ncccn2)CC1,inactive: 114%
3,CCn1c(SCC(=O)N/N=C/c2ccccc2OCC(=O)O)nnc1-c1ccccc1,inconclusive: 110%
4,CCOC(=O)c1sc(NC(=O)CC)nc1C,inconclusive: 91.5%
5,COc1cccc(N2CCN(C(=O)c3c(C)nn(-c4ccccc4)c3C)CC2)c1,inactive: 111%
6,O=C(Cc1ccccc1)NC1CCN(Cc2ccccc2)CC1,inconclusive: 75%
7,O=C(NC1CCCCC1)c1cc(C2CC2)on1,inconclusive: 99%
8,COc1cc(O)ccc1/C=N/NC(=O)c1ccc([N+](=O)[O-])cc1,inconclusive: 108%
9,COc1cccc(OCCSc2nc3ccccc3c(=O)[nH]2)c1,inconclusive: 120%
10,CN(C)C(=S)c1ccc(N(C)C)cc1,inconclusive: 93.4%
11,Cc1nn(-c2ccc(F)cc2)c(Cl)c1/C=C/C(=O)OCC(=O)Nc1c(F)c(F)c(F)c(F)c1F,inactive: 101%
12,COc1ccc(/C=C/C(=O)N(c2ccccn2)C2CCCCC2)cc1OC,inconclusive: 99.8%
13,Cc1cc(C)c2nc(-c3ccccn3)cc(C(=O)NCc3cc(C)n(C)n3)c2c1,inconclusive: 82.5%
14,Cn1c(SCC(=O)Nc2ccc(Cl)cc2)nc(O)cc1=O,inconclusive: 38.3%
15,COc1ccc(N(CCC#N)C(=O)/C(C#N)=C\c2cccs2)cc1,inconclusive: 250%
16,C=CCn1c(SCC(=O)NNC(=O)Nc2ccc(C)cc2)nnc1-c1ccccc1,inconclusive: 120%
17,Cn1ncc(Cl)c1C(=O)Nc1sc2c(c1C(N)=O)CCC2,inactive: 87.6%
18,COc1ccc(C(=O)NCC(=O)OCc2ccccc2F)cc1,inconclusive: 95.1%
19,O=C(Nc1cccc2ccccc12)NC1Cc2ccccc2C1,inconclusive: 115%
20,CCOC(=O)c1cc(C)nc(S(C)(=O)=O)c1C#N,inconclusive: 61.7%
21,O=C1CSC(c2cccnc2)N1c1ccccc1 (stereo unspecified),inconclusive: -6.53%
22,CCCCC1=CC2=CC(=O)C(C)(OC(=O)CC)C(=O)C2=CN1C1CCCC1 (stereo unspecified),inconclusive: 68.5%
